Data reported in the supplement of paper PMC10849652.
This is one part of the list.

Protein sequences, listed by entry. Tags and fused reporters are not part of them. Lines headed by an entry give the natural chain unless they say otherwise; changes in a name come on top.
UniProt Q8N567: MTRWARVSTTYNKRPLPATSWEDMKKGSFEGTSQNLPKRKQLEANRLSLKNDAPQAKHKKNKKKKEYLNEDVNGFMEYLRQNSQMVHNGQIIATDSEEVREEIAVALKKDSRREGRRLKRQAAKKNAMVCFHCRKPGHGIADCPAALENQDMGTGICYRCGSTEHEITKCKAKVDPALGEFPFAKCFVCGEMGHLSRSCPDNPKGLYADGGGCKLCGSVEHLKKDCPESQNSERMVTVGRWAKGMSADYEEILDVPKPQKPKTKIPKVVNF
UniProt Q9NPG8: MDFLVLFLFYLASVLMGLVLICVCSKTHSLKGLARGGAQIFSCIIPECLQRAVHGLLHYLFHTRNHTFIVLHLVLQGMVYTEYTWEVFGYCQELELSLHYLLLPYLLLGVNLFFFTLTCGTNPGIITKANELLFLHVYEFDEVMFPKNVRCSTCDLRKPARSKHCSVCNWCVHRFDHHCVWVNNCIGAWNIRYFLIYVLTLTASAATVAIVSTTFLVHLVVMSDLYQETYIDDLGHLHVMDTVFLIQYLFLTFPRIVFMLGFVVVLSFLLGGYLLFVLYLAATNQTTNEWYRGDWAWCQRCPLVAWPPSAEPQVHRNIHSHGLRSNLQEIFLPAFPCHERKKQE
UniProt Q9ULC8: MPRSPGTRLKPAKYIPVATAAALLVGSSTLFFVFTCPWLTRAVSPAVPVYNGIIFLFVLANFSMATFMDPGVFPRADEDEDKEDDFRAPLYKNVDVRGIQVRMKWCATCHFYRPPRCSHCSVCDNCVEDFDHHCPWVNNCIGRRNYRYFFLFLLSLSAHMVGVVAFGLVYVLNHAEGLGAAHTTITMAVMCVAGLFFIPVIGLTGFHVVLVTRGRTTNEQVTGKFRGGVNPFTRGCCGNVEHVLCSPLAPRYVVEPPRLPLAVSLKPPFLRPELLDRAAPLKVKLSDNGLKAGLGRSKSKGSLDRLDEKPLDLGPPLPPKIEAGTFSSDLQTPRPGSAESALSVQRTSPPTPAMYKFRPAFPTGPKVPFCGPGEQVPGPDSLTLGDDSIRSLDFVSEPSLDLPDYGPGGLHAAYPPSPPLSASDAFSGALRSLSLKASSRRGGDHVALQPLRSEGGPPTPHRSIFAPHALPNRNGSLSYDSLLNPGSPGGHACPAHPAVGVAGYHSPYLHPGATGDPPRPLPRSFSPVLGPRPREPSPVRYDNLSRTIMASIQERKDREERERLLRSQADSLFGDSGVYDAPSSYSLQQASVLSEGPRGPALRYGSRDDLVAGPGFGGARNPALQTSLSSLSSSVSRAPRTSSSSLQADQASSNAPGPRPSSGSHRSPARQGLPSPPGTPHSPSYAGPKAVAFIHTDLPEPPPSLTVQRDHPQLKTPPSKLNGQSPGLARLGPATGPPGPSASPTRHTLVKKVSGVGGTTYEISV
UniProt Q8IZH2: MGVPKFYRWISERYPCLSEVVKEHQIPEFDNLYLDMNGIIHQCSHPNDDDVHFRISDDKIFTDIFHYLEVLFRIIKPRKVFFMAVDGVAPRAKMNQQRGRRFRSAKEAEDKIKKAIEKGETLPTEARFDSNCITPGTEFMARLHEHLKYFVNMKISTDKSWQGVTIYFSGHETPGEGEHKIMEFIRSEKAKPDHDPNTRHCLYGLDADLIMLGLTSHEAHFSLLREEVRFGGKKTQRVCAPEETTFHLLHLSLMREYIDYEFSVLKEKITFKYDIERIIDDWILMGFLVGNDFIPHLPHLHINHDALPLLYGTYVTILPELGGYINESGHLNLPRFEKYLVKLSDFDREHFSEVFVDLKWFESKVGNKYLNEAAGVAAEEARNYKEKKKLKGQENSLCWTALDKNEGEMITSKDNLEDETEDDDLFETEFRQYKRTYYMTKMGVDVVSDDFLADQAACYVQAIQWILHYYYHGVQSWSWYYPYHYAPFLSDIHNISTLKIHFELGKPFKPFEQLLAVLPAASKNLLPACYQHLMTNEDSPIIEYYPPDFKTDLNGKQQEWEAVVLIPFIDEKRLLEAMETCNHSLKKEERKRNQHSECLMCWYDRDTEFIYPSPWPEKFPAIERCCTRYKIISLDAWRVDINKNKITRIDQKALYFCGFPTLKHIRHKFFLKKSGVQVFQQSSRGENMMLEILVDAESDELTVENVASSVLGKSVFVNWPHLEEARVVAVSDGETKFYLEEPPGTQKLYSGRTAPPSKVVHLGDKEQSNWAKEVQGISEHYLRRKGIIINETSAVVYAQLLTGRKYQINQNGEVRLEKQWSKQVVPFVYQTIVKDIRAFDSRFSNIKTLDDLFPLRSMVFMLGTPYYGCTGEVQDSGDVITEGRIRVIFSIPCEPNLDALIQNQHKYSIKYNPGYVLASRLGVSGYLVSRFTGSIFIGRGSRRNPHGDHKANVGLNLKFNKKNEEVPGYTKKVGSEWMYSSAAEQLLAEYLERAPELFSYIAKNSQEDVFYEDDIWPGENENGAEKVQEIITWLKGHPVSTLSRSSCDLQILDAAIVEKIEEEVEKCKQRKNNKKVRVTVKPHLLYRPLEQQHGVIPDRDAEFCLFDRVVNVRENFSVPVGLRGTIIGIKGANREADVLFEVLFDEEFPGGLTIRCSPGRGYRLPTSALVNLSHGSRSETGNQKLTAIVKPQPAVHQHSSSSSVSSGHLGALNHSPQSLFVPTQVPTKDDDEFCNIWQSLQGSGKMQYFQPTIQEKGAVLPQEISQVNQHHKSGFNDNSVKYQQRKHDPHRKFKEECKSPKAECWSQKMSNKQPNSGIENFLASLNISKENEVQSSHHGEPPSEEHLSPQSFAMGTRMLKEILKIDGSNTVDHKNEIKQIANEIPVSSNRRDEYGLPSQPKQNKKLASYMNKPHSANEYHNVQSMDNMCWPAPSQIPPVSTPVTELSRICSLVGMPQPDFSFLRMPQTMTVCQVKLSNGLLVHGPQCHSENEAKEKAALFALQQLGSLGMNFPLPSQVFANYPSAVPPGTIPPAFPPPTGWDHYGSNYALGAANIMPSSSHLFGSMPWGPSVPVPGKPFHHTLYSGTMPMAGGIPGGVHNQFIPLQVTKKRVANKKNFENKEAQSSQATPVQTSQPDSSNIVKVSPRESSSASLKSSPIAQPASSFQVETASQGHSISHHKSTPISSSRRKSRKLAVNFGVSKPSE
UniProt P52739: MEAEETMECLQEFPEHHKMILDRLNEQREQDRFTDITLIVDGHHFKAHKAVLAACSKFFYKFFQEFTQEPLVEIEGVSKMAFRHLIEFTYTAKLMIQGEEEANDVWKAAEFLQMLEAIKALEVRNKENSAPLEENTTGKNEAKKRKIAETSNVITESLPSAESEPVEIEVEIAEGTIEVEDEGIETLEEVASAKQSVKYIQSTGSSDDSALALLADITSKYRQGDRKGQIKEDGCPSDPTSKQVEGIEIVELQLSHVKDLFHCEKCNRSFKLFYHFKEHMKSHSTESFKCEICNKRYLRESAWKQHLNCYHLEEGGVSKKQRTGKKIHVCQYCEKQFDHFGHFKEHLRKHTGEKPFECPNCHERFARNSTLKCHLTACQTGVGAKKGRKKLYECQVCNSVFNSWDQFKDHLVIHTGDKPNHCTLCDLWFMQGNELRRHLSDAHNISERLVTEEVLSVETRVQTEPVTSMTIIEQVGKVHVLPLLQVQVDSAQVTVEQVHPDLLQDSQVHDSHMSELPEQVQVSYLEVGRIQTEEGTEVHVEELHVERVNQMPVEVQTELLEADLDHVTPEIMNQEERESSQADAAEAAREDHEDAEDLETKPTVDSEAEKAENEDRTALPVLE
UniProt Q5T200: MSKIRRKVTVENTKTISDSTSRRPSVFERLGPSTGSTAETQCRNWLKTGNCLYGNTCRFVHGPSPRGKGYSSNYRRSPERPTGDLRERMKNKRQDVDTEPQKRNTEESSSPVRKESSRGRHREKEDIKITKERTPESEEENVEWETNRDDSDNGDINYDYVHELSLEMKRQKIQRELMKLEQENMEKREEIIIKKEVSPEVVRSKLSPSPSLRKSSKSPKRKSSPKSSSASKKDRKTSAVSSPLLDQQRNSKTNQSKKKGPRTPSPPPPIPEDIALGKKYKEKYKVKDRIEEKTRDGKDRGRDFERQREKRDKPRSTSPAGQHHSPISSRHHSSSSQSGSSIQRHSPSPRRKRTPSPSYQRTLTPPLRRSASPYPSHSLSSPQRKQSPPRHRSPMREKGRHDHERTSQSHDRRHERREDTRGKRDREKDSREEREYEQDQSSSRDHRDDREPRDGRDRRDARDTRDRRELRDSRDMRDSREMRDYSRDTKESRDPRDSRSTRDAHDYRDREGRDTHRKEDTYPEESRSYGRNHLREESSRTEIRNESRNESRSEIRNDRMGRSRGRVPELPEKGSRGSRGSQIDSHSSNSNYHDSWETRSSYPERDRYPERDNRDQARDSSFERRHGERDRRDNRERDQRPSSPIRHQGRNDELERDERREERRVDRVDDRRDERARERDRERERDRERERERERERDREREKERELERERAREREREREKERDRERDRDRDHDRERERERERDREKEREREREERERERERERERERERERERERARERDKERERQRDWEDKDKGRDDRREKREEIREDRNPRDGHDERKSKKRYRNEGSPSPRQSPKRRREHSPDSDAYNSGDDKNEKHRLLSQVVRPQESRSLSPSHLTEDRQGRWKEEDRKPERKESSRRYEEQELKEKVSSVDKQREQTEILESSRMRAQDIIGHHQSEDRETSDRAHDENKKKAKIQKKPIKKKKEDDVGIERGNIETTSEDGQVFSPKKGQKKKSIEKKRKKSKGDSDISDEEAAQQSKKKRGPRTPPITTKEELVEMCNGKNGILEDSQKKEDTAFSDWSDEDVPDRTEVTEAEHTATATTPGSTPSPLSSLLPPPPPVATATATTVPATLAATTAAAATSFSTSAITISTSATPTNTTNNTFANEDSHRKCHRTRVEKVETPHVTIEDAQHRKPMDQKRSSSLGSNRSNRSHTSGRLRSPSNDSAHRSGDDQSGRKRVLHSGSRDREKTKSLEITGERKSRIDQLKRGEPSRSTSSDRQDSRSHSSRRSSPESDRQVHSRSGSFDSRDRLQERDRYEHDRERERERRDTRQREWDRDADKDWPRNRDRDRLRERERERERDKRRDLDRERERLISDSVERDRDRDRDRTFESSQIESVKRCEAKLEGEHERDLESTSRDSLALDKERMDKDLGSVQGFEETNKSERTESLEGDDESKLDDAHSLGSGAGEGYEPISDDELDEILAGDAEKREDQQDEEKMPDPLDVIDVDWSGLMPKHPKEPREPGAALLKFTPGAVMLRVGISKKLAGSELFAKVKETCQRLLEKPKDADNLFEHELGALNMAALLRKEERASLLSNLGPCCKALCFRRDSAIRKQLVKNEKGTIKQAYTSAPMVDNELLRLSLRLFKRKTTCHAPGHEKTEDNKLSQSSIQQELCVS
UniProt P51811: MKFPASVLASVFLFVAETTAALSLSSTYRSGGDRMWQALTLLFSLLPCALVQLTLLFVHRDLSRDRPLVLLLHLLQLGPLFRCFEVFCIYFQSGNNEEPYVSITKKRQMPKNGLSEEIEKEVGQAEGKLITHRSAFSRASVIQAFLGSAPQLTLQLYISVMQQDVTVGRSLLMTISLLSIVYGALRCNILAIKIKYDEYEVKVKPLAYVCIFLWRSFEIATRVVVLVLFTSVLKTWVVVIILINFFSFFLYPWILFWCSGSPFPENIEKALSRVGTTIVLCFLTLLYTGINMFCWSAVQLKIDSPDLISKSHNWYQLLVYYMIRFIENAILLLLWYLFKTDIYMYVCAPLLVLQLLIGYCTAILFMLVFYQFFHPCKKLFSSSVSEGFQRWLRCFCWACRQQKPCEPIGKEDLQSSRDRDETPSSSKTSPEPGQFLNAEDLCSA
UniProt Q9H5J0: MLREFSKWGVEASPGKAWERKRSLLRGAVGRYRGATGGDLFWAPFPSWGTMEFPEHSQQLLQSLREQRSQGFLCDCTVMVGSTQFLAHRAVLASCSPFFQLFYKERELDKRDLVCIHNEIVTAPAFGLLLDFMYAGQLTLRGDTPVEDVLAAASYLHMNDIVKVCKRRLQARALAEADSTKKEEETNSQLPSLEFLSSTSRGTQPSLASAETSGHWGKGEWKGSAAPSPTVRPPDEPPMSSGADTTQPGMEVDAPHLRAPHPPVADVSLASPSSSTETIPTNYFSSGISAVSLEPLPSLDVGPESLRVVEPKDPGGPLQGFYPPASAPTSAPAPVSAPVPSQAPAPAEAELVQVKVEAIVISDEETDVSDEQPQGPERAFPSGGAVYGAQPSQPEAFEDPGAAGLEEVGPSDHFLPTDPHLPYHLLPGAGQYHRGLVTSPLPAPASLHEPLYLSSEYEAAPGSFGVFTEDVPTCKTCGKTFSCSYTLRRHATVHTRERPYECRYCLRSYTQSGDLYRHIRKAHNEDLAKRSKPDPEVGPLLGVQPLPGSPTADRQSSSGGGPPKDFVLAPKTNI

How the values were obtained:
Test in all cases: log2 fold change, soluble protein after heating vs DMSO (PISA); higher = thermal stabilisation; K562 cells, 10 uM, 30 min; active = over 0.2 and 3.5 SD of the protein, either way, in both replicates (recomputed)
[1] = compound: COC1=CC=C(C=C1)CN2C=CC3=C2C=C(C=C3)C(=O)NO
Outline: (§1)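 Values are thermal stability changes relative to control samples and are taken from duplicates. They are stated as log2 fold changes. Before quantification by TMTpro 16plex LC-MS/MS with equalised channel sums, K562 cells at 2×10^6 cells/mL were treated with 10 μM compound for 30 min, heated in aliquots for 3 min across 48°C-58°C, pooled, extracted in PBS with 0.5% NP-40 at 4°C, and centrifuged at 21,000xg for 90 min to give the soluble supernatant.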

[2] = compound: CON(C)C(=O)N1N=C(c2cc(F)ccc2F)S[C@@]1(CCCN)c1ccccc1 [filanesib]
Outline: as §1

[3] = compound: CO[C@H]1C[C@@H]2CC[C@@H](C)[C@@](O)(O2)C(=O)C(=O)N2CCCC[C@H]2C(=O)O[C@H]([C@H](C)C[C@@H]2CC[C@H](n3cnnn3)[C@H](OC)C2)CC(=O)[C@H](C)/C=C(\C)[C@@H](O)[C@@H](OC)C(=O)[C@H](C)C[C@H](C)/C=C/C=C/C=C/1C [zotarolimus]
Outline: as §1

[4] = compound: COc1cc(C(=O)O)ccc1NC(=O)[C@@H]1N[C@@H](CC(C)(C)C)[C@](C#N)(c2ccc(Cl)cc2F)[C@H]1c1cccc(Cl)c1F [idasanutlin]
Outline: as §1

[5] = compound: COc1cc(Nc2ncc3c(n2)-c2ccc(Cl)cc2C(c2c(F)cccc2OC)=NC3)ccc1C(=O)O [alisertib]
Outline: as §1

[6] = compound: COc1cc2nc(-c3cc(F)ccc3O)nc(N[C@@H]3CNC[C@H]3C(C)(C)O)c2cc1OC
Outline: as §1

[7] = compound: COc1cc2ncnc(Nc3ccc(F)c(Cl)c3)c2cc1OCCCN1CCOCC1 [gefitinib]
Outline: as §1

[8] = compound: COc1cccc2cc(-c3nc([C@H]4CC[C@H](C(=O)O)CC4)n4ncnc(N)c34)[nH]c12
Outline: as §1

[9] = compound: CS(=O)(=O)CCNCc1ccc(-c2ccc3ncnc(Nc4ccc(OCc5cccc(F)c5)c(Cl)c4)c3c2)o1 [lapatinib]
Outline: as §1

[10] = compound: CS(=O)(=O)N1CCN(Cc2cc3nc(-c4cccc5[nH]ncc45)nc(N4CCOCC4)c3s2)CC1 [pictilisib]
Outline: as §1

[11] = compound: CS(=O)(=O)c1ccc(-c2cnc(N)c(C(=O)Nc3ccccc3)n2)cc1
Outline: as §1

[12] = compound: C[C@@H](Oc1cc(-c2cnn(C3CCNCC3)c2)cnc1N)c1c(Cl)ccc(F)c1Cl [crizotinib]
Outline: as §1

[13] = compound: C[C@@H]1COCCN1C2=NC(=NC(=C2)C3(CC3)S(=O)(=O)C)C4=C5C=CNC5=CC=C4
Outline: as §1

[14] = compound: C[C@H](C1=CC=C(C=C1)C(=O)NC2=C3C=CNC3=NC=C2)N
Outline: as §1

[15] = compound: Cc1cc(Nc2cc(CN3CCOCC3)c3nc(C)c(Cc4ccc(Cl)cc4F)n3n2)n[nH]1 [gandotinib]
Outline: as §1

[16] = compound: Cc1ccc(-n2nc(C(C)(C)C)cc2NC(=O)Nc2ccc(OCCN3CCOCC3)c3ccccc23)cc1 [doramapimod]
Outline: as §1

[17] = compound: Cc1ccc(C(=O)N(CCCN)[C@@H](c2nc3cc(Cl)ccc3c(=O)n2Cc2ccccc2)C(C)C)cc1 [ispinesib]
Outline: as §1

[18] = compound: C[C@H](Nc1ncnc2nc[nH]c12)c1cc2cccc(Cl)c2c(=O)n1-c1ccccc1 [duvelisib]
Outline: as §1

[19] = compound: Cc1cc(Nc2cc(N3CCN(C)CC3)nc(Sc3ccc(NC(=O)C4CC4)cc3)n2)n[nH]1 [tozasertib]
Outline: as §1

[20] = compound: Cc1cc(SCc2sc(-c3ccc(C(F)(F)F)cc3)nc2C)ccc1OCC(=O)O
Outline: as §1

Target | log2 fold change [1] | log2 fold change [2] | log2 fold change [3] | log2 fold change [4] | log2 fold change [5] | log2 fold change [6] | log2 fold change [7] | log2 fold change [8] | log2 fold change [9] | log2 fold change [10] | log2 fold change [11] | log2 fold change [12] | log2 fold change [13] | log2 fold change [14] | log2 fold change [15] | log2 fold change [16] | log2 fold change [17] | log2 fold change [18] | log2 fold change [19] | log2 fold change [20]
ZCCHC9 (UniProt Q8N567) | inactive: -0.05 | active: 0.527 | inactive: -0.044 | inactive: 0.139 | inactive: -0.083 | inactive: -0.006 | inactive: -0.062 | inactive: -0.121 | inactive: 0.028 | inactive: -0.004 | inactive: 0.1 | inactive: 0.032 | inactive: -0.381 | inactive: 0.359 | inactive: 0.265 | inactive: 0.169 | inactive: -0.353 |  |  | 
YBX3 isoform 2 (UniProt P16989) | inactive: -0.172 | inactive: 0.105 | inactive: -0.076 | inactive: 0.291 | inactive: -0.142 | inactive: 0.04 | inactive: 0.009 | inactive: -0.139 | inactive: 0.217 |  | inactive: -0.161 | inactive: 0.11 | inactive: -0.51 | inactive: 0.201 |  | inactive: 0.098 | inactive: -0.149 | inactive: -0.343 | inactive: 0.018 | inactive: -0.262
ZDHHC4 (UniProt Q9NPG8) | inactive: 0.067 | inactive: 0.013 |  |  | inactive: -0.03 | inactive: -0.031 |  | inactive: -0.138 | inactive: 0.084 |  | inactive: -0.085 | inactive: -0.033 | inactive: 0.095 |  |  | inactive: -0.012 |  |  |  | 
ZEB2 (UniProt O60315) | inactive: -0.078 | inactive: 0.025 |  |  | inactive: 0.103 | inactive: -0.018 | inactive: -0.086 | inactive: 0.051 | inactive: 0.019 |  | inactive: 0.025 | inactive: -0.141 | inactive: 0.001 |  |  | inactive: 0.032 | inactive: 0.05 |  |  | inactive: 0.089
ZDHHC8 isoform 3 (UniProt Q9ULC8) | inactive: 0.07 |  |  |  |  |  | inactive: 0.023 |  |  |  |  | inactive: -0.187 | inactive: 0.284 |  |  | inactive: 0.359 |  |  |  | inactive: 0.031
ZMYM2 (UniProt Q9UBW7) | inactive: 0.197 |  |  |  |  | inactive: 0.252 |  |  | inactive: -0.271 |  |  | inactive: -0.573 |  |  |  | inactive: -0.12 |  | inactive: 0.037 |  | inactive: -0.093
XRN1 (UniProt Q8IZH2) | inactive: -0.03 |  | inactive: 0.021 |  | inactive: 0.114 |  | inactive: 0.042 | inactive: -0.355 |  | inactive: -0.13 |  | inactive: -0.27 | inactive: 0.257 | inactive: 0.394 | inactive: -0.063 | inactive: 0.159 | inactive: -0.225 | inactive: -0.113 | inactive: -0.133 | inactive: 0.076
YIPF6 (UniProt Q96EC8) | inactive: -0.019 | inactive: -0.08 | inactive: -0.026 | inactive: -0.008 | inactive: 0.419 | inactive: 0.043 | inactive: 0.005 | inactive: 0.02 | inactive: 0.061 | inactive: 0.107 | inactive: 0.199 | inactive: -0.081 | inactive: 0.076 | inactive: -0.013 | inactive: -0.019 | inactive: -0.036 | inactive: 0.02 |  |  | inactive: -0.175
ZMYND8 isoform 19 (UniProt Q9ULU4) | inactive: -0.138 |  | inactive: 0.02 |  |  | inactive: -0.155 |  |  | inactive: 0.071 |  |  | inactive: -0.277 | inactive: 0.138 | inactive: 0.015 |  | inactive: 0.112 |  | inactive: -0.122 |  | inactive: 0.114
XYLT2 (UniProt Q9H1B5) | inactive: -0.088 |  | inactive: -0.182 |  |  |  |  |  |  |  |  | inactive: 0.022 | inactive: 0.451 | inactive: 0.095 |  | inactive: 0.082 |  |  |  | 
ZNF131 (UniProt P52739) | inactive: -0.05 | inactive: 0.108 |  |  |  |  |  |  |  |  | inactive: 0.069 | inactive: 0.032 | inactive: -0.107 |  |  | inactive: 0.273 | inactive: 0.049 |  |  | 
ZC2HC1A (UniProt Q96GY0) | inactive: -0.144 |  | inactive: -0.02 | inactive: 0.014 | inactive: -0.011 | inactive: -0.057 | inactive: -0.042 | inactive: -0.035 | inactive: 0.001 | inactive: 0.24 |  | inactive: -0.045 | inactive: -0.138 | inactive: 0.134 | inactive: 0.079 | inactive: 0.161 | inactive: 0.003 | inactive: 0.098 | inactive: -0.065 | inactive: -0.153
ZC3H13 (UniProt Q5T200) | inactive: -0.077 |  | inactive: -0.303 | inactive: 0.227 | inactive: -0.049 | inactive: 0.086 | inactive: 0.012 | inactive: 0.625 | inactive: -0.16 | inactive: 0.164 |  | inactive: -0.024 | inactive: -0.025 | inactive: 0.562 | inactive: 0.01 | inactive: 0.23 | inactive: -0.372 | inactive: 0.2 | inactive: -0.121 | inactive: -0.351
XK (UniProt P51811) | inactive: 0.024 | inactive: 0.13 | inactive: -0.126 | inactive: 0.03 | inactive: 0.116 | inactive: 0.117 | inactive: 0.036 | inactive: -0.148 | inactive: -0.046 | inactive: -0.16 | inactive: -0.067 | inactive: 0.158 |  | inactive: -0.032 | inactive: 0.149 | inactive: 0.034 |  | inactive: 0.067 |  | inactive: -0.137
ZBTB3 (UniProt Q9H5J0) | inactive: 0.021 |  | inactive: 0.039 | inactive: -0.364 | inactive: -0.141 | inactive: 0.027 | inactive: -0.087 | inactive: 0.026 | inactive: 0.09 | inactive: 0.083 |  | inactive: 0.199 |  | inactive: -0.345 | inactive: -0.022 | inactive: -0.034 | inactive: -0.014 |  | inactive: -0.126 | 
ZFYVE28 (UniProt Q9HCC9) | inactive: 0.131 |  |  |  |  | inactive: -0.001 |  |  | inactive: 0.095 |  |  | inactive: -0.299 |  |  |  | inactive: -0.225 |  |  |  | 
ZFAND1 (UniProt Q8TCF1) | inactive: -0.247 | inactive: -0.075 |  |  | inactive: -0.088 | inactive: -0.351 | inactive: -0.002 | inactive: 0.154 | inactive: 0.23 |  | inactive: -0.014 | inactive: 0.106 |  |  |  | inactive: -0.011 | inactive: 0.216 |  | inactive: 0.256 | 
ZBTB43 (UniProt O43298) | inactive: 0.094 | inactive: -0.024 | inactive: -0.036 | inactive: 0.002 |  |  | inactive: 0.025 |  |  | inactive: 0.027 | inactive: 0.021 | inactive: -0.077 | inactive: -0.088 | inactive: -0.013 | inactive: 0.043 | inactive: -0.029 | inactive: 0.164 |  |  | inactive: 0.041
YIPF2 (UniProt Q9BWQ6) |  |  | inactive: 0.218 |  |  |  | inactive: 0.068 |  |  |  |  |  | inactive: -0.007 | inactive: -0.107 |  |  | inactive: -0.133 |  | inactive: -0.194 | 

Two entries picked at random from the list so far, as already listed:
Target | log2 fold change [1] | log2 fold change [2] | log2 fold change [3] | log2 fold change [4] | log2 fold change [5] | log2 fold change [6] | log2 fold change [7] | log2 fold change [8] | log2 fold change [9] | log2 fold change [10] | log2 fold change [11] | log2 fold change [12] | log2 fold change [13] | log2 fold change [14] | log2 fold change [15] | log2 fold change [16] | log2 fold change [17] | log2 fold change [18] | log2 fold change [19] | log2 fold change [20]
XK (UniProt P51811) | inactive: 0.024 | inactive: 0.13 | inactive: -0.126 | inactive: 0.03 | inactive: 0.116 | inactive: 0.117 | inactive: 0.036 | inactive: -0.148 | inactive: -0.046 | inactive: -0.16 | inactive: -0.067 | inactive: 0.158 |  | inactive: -0.032 | inactive: 0.149 | inactive: 0.034 |  | inactive: 0.067 |  | inactive: -0.137
XRN1 (UniProt Q8IZH2) | inactive: -0.03 |  | inactive: 0.021 |  | inactive: 0.114 |  | inactive: 0.042 | inactive: -0.355 |  | inactive: -0.13 |  | inactive: -0.27 | inactive: 0.257 | inactive: 0.394 | inactive: -0.063 | inactive: 0.159 | inactive: -0.225 | inactive: -0.113 | inactive: -0.133 | inactive: 0.076
